The target in experiment [1] is T1, BMP9 growth factor domain (GFD) dimer (human) (UniProt Q9UK05).
T1 sequence: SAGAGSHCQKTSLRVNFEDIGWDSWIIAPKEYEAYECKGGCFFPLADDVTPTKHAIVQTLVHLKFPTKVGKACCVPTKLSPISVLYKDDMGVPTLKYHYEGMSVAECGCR
As to the kind of experiment: SEC; analytical gel filtration; pro:BMP9 or pro:BMP10 pre-mixed with 0.3-fold sENG(M) or sENG(D); both purified.

Experiment [2] deals with T1, BMP9 growth factor domain (GFD) dimer (human). As to the kind of experiment: native gel or EMSA; pro:BMP9 or pro:BMP10 pre-mixed with sENG(D), sENG(M), BMPRII ECD or ActRIIB ECD at stated molar ratios (from 0.3:1) in TBS, 8 ul, 30 min at room temperature; 10% native PAGE at 4 C; bands cut out and re-run on non-reducing SDS-PAGE; both purified.
Experiment [3] has as its target T2, BMP10 growth factor domain (GFD) dimer (human) (UniProt O95393).
T2 sequence: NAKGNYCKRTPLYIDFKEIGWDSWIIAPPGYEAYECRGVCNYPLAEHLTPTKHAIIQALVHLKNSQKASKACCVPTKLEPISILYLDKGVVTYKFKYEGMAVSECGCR
Put plainly: SEC; analytical gel filtration; pro:BMP9 or pro:BMP10 pre-mixed with 0.3-fold sENG(M) or sENG(D); both purified. In general terms: In gel filtration, larger molecules generally elute earlier.

Experiment [4] deals with T2, BMP10 growth factor domain (GFD) dimer (human). Put plainly: native gel or EMSA; pro:BMP9 or pro:BMP10 pre-mixed with sENG(D), sENG(M), BMPRII ECD or ActRIIB ECD at stated molar ratios (from 0.3:1) in TBS, 8 ul, 30 min at room temperature; 10% native PAGE at 4 C; bands cut out and re-run on non-reducing SDS-PAGE; both purified.

The results in this text go back to publication PMC12824264.

No constants are given. Whether binding was seen depends on the method and setting. Binding calls can cover weak binding; strength is not graded here.

For the substance “BMP9 prodomain (human) (domain or fragment)”, the binding result in experiment [1] and in experiment [2] was “binds” throughout.
With “BMP10 prodomain (human) (domain or fragment)”, the binding entry in experiment [3] and in experiment [4] was “binds” each time.
